Assay results from patent US11241427B2, “Small molecule modulators of NR2F6 activity” (Regen Biopharma, Inc., priority 2015, dated 2022).
At least one structure is not confirmed: it was looked up by name or label, or the drawing left a doubt.

Biological target: T1, NR2F6 (ligand binding domain, amino acids 163-404) (Homo sapiens, UniProt P10588)
T1 construct: HIS (N, cleaved yes); FLAG (N, cleaved yes); TEV site (N, cleaved yes); made in house; host or cells: E. coli BL21 (DE3)
T1 sequence (P10588 163-404): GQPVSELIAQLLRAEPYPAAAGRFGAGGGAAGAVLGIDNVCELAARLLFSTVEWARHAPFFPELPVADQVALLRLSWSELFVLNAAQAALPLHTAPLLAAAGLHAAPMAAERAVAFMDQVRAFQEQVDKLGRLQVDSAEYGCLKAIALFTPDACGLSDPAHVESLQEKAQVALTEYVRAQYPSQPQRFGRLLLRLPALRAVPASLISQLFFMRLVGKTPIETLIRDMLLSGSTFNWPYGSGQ
Assay: Thermoshift analysis (TSA) of compound binding to NR2F6
Conditions: Table 1.1; 100 μM compound, 0.5 mg/ml NR2F6, 1% DMSO; NR2F6 alone Tm 48 °C
Experimental: The binding interaction between target protein NR2F6 and 139 compounds selected from an in silico screen was assessed using thermoshift analysis (TSA). Thermoshift is a physical technique used to determine the melting temperature of a protein. The interaction of the ligand to the folded state of the protein shifts the melting temperature. In the experimental system used, the NR2F6 protein is mixed with the ligand and the fluorescent dye SYPRO Orange®. The fluorescence is monitored over temperature gradient between 20 and 95° C. with 0.5° C. increment. The dye binds to the hydrophobic regions of molten globules and denatured proteins resulting in an increase of fluorescence. A plot of the fluorescence is obtained and used to determine the melting temperature in absence and presence of ligand.
The ligand binding domain of NR2F6 (amino acids 163-404) was cloned for soluble expression in E. coli with an N-terminal HIS-FLAG-TEV-tag. Expression was performed in BL21 (DE3) cells. In brief, a 12L E. coli culture was induced with IPTG in logarithmic phase and further incubated over night at 18° C. Cells were harvested via centrifugation, washed with buffer and stored at […] until purification.
The purification procedure performed consists of HIS affinity chromatography, tag cleavage, negative affinity chromatography, size exclusion chromatography and ion exchange chromatography.
Thermoshift analysis was performed on 139 Compounds that were stored as powder in DMSO stocks. A reaction volume of 25 μl was used, with reaction temperatures being increased in 0.5 increments from 20-95° C. in 96 well, PCR plates (Hard-Shell®, HSP-9655). The control was NR2F6 protein alone in 1% DMSO. […]
The following pipetting sequence was used: 1) Add appropriate volume of target enzyme in reaction buffer; 2) Add appropriate volume of dye SYPRO Orange® in reaction buffer; 3) Add inhibitor in 100% DMSO (1% final DMSO conc); 4) Measure fluorescence
Fluorescence was quantified using a CFX Connect™ Real-Time PCR Detection System (BioRad) […]

SMILES | Tm [°C]
Cc1c(C)c2c(c(C)c1O)CCC(C)(COc1ccc(CC3SC(=O)NC3=O)cc1)O2 (stereo not drawn) [Cpd 79, Troglitazone] | 48
CC(C)(Oc1ccc(CCNC(=O)c2ccc(Cl)cc2)cc1)C(=O)O [Cpd 61, Bezafibrate] | 48
CC1(COc2ccc(CC3SC(=O)NC3=O)cc2)CCCCC1 (stereo not drawn) [Cpd 72, Ciglitazone] | 47.5
